Reference: the supplement of paper PMC10849652
The list shows a part of the results.

Sequences of proteins named here, by UniProt entry; tags and fusion partners are left off. A change or cut given only in a name is not applied to a line headed by its entry.
UniProt Q7Z406, whole entry, looked up: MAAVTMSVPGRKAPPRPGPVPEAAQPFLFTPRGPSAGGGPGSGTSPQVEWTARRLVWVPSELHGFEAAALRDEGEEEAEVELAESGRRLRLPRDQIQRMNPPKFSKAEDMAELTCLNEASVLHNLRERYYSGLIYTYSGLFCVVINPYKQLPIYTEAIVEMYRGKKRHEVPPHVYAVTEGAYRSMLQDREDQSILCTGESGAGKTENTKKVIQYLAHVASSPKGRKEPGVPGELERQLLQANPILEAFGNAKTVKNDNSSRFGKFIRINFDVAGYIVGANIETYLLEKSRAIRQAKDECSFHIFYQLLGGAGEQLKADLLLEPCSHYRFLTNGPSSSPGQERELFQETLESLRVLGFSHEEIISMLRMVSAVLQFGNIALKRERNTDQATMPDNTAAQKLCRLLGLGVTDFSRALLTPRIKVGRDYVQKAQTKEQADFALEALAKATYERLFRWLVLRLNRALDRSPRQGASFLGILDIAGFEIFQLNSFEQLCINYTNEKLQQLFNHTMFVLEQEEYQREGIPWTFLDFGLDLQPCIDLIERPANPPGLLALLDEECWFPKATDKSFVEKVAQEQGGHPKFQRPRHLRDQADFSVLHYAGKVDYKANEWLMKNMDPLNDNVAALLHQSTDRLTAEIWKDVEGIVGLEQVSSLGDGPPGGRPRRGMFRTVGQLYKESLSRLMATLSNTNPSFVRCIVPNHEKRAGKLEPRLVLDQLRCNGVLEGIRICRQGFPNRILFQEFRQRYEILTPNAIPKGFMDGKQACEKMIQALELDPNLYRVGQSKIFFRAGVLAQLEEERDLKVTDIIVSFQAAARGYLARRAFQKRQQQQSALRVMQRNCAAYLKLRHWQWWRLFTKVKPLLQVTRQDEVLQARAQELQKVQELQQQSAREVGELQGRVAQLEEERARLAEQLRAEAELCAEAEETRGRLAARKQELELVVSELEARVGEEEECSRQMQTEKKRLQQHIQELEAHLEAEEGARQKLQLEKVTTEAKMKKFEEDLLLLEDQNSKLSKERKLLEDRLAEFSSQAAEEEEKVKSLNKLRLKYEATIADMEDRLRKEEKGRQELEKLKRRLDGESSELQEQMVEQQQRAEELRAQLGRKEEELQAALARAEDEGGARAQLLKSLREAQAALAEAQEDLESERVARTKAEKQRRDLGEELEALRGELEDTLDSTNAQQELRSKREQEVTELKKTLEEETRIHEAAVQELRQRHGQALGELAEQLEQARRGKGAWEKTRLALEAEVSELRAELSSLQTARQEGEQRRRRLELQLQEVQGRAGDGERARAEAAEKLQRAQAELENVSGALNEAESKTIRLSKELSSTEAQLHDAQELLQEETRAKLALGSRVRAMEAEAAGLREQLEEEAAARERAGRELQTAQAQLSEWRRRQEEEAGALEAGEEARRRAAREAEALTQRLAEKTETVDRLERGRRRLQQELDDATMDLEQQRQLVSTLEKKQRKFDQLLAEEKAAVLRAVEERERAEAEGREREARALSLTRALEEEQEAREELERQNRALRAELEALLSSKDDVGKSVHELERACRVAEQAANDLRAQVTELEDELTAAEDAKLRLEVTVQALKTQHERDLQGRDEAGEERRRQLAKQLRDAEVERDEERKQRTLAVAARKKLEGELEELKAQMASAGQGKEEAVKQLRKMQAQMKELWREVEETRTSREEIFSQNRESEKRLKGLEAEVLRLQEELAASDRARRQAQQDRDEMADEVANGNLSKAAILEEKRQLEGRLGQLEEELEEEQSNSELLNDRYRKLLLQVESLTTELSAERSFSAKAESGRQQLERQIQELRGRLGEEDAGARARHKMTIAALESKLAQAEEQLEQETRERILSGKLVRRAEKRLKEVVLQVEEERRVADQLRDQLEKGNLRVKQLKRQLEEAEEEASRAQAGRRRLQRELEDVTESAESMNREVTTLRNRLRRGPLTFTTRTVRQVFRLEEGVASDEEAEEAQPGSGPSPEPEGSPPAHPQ
UniProt P62166, whole entry, looked up: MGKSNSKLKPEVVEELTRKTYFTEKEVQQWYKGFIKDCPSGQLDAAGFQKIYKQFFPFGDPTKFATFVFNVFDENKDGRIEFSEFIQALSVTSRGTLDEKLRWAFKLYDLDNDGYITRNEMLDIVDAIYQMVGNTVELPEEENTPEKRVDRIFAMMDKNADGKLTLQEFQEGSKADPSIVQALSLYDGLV
UniProt Q13564: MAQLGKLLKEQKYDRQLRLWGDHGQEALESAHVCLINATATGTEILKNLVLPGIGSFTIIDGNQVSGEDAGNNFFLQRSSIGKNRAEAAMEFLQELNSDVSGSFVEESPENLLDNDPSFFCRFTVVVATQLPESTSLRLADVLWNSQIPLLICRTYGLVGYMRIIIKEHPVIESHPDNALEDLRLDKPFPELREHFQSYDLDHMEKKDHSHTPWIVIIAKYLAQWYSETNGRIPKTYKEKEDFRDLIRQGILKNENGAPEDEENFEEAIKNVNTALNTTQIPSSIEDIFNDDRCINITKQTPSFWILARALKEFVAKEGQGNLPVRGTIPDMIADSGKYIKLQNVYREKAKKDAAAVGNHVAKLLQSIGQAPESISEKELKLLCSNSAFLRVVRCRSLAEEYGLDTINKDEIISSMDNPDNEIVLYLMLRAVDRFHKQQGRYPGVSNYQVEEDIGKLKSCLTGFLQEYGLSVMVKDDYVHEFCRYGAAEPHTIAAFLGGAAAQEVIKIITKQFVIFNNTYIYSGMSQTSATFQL
UniProt Q9BSU3: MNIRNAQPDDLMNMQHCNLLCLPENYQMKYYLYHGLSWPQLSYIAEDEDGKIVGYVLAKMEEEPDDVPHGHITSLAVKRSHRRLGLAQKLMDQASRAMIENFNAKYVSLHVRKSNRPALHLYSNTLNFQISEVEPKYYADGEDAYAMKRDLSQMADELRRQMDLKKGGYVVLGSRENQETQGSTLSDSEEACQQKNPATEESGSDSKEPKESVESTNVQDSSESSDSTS
UniProt B0I1T2: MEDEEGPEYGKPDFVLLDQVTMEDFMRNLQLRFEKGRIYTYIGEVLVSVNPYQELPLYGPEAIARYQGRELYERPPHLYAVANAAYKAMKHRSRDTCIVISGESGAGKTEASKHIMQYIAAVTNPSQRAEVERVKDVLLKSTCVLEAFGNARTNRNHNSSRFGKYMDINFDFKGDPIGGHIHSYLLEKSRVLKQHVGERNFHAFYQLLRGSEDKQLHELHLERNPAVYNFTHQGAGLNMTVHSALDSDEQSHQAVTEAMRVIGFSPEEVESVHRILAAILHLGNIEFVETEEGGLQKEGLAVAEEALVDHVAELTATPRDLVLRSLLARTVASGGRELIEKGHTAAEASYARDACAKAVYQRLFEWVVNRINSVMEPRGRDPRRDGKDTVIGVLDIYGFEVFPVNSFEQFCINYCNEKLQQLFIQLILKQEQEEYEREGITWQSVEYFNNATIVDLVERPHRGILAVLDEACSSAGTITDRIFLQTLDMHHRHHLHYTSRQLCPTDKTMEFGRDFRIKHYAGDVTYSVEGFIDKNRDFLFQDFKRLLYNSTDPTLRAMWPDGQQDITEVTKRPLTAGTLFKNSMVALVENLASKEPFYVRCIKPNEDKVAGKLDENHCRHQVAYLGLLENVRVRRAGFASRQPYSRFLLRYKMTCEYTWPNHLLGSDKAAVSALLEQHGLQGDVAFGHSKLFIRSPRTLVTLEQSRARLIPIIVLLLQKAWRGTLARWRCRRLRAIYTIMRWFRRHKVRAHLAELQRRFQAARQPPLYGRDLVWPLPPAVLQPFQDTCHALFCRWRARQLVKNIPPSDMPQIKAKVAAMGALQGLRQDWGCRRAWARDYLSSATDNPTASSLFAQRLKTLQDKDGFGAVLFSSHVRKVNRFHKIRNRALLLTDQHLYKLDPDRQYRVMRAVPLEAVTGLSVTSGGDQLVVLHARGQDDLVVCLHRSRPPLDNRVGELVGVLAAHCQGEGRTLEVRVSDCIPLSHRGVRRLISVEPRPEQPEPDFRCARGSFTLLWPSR
UniProt P61599, whole entry, looked up: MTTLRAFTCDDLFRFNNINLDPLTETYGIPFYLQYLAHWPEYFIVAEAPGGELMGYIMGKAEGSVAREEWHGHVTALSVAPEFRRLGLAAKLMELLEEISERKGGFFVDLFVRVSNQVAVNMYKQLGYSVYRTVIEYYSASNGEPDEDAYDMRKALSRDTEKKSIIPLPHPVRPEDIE
UniProt Q96NY9: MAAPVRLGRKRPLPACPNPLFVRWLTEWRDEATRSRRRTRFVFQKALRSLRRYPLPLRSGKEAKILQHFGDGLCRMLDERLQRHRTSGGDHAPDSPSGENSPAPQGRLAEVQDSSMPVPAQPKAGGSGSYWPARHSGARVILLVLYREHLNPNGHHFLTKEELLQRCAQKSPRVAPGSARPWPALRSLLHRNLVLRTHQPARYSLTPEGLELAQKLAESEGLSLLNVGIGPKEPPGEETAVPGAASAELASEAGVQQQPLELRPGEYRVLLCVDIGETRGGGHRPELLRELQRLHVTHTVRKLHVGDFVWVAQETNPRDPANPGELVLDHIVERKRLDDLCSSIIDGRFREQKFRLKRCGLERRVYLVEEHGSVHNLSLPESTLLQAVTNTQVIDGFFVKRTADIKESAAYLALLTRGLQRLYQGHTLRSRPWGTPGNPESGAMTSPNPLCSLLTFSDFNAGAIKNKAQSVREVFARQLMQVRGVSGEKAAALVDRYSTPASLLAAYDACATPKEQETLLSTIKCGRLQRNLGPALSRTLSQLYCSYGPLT
UniProt Q15788: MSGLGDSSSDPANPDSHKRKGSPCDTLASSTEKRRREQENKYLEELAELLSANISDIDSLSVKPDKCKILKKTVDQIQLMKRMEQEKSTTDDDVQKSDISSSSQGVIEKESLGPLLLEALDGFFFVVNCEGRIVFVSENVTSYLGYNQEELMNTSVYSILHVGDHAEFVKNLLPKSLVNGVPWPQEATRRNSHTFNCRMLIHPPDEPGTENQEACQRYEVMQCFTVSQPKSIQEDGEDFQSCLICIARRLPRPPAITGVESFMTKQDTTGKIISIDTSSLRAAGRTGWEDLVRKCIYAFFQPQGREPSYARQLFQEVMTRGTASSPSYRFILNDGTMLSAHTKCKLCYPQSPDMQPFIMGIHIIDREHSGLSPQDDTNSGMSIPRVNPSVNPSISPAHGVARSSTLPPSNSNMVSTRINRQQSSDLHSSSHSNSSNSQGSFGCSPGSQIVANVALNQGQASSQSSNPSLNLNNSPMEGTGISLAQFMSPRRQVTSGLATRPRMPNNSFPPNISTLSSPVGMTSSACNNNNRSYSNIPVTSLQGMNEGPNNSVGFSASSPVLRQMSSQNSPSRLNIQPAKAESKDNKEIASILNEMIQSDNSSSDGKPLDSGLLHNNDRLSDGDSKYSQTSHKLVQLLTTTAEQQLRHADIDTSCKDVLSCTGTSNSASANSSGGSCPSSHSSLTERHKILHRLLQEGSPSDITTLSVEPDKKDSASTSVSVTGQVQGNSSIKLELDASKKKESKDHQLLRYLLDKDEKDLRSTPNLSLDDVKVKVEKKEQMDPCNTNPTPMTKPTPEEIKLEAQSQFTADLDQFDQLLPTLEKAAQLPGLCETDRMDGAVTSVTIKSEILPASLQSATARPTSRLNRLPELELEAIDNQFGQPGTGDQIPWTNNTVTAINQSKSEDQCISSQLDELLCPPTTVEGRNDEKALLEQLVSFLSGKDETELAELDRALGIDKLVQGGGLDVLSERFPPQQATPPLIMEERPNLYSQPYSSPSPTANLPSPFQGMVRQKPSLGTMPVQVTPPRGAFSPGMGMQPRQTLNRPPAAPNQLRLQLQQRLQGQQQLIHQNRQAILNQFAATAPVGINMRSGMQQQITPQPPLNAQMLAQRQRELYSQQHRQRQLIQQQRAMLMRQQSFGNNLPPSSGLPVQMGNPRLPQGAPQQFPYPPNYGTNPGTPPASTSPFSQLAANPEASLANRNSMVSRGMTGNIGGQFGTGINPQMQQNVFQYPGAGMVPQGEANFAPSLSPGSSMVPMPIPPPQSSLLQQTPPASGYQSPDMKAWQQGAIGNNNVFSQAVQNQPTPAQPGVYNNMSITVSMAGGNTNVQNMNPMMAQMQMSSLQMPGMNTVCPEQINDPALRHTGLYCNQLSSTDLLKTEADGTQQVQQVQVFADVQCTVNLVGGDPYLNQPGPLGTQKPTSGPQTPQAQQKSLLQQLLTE

How the values were obtained:
Experiment in all cases: log2 fold change, soluble protein after heating vs DMSO (PISA); higher = thermal stabilisation; K562 lysate, 10 uM; active = over 0.2 and 3.5 SD of the protein, either way, in both replicates (recomputed)
ibrutinib = compound: C=CC(=O)N1CCC[C@@H](n2nc(-c3ccc(Oc4ccccc4)cc3)c3c(N)ncnc32)C1 [ibrutinib]
Outline: (§1)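 Thermal stability, expressed as log-two fold change relative to solvent controls, is given from duplicates. Crude K562 extract in PBS pH 7.4 with 1 mM MgCl2, at 1 mg/mL protein, was treated with 10 μM compound for 30 min and heated in aliquots for 3 min across 48°C-58°C. After pooling, adjustment to 0.5% NP-40 at 4°C and centrifugation at 21,000xg for 90 min, supernatant protein was measured by TMTpro 16plex LC-MS/MS with channel sums equalised.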

[1] = compound: CC(=O)c1cnc2ccc(-c3cc(Cl)c(O)c(Cl)c3)nc2c1N[C@H]1CC[C@H](CN(C)C)CC1
Outline: as §1

ralimetinib = compound: CC(C)(C)Cn1c(N)nc2ccc(-c3[nH]c(C(C)(C)C)nc3-c3ccc(F)cc3)nc21 [ralimetinib]
Outline: as §1

[2] = compound: CC(C)(O)CC(=O)NCCn1ccc2ncnc(Nc3ccc(Oc4cccc(C(F)(F)F)c4)c(Cl)c3)c21
Outline: as §1

[3] = compound: CC(C)C1=C2N=C(C=C(N2N=C1)NCC3=CC=CC=C3)NCCCCCCN
Outline: as §1

[4] = compound: CC1=C(C(CC(=O)N1)C2=CC=C(C=C2)C(F)(F)F)C(=O)NC3=C(C=C4C(=C3)C=NN4)F
Outline: as §1

[5] = compound: CC1=C(C2=C(C=C1)C(=O)C3=CC=CC=C3N2CCCN)C
Outline: as §1

[6] = compound: CC1=C(C=C(C=C1)NC(=O)C2=CC(=CC=C2)C(C)(C)C#N)NC3=CC4=C(C=C3)N=CN(C4=O)C
Outline: as §1

[7] = compound: CC1=C(C=C(C=C1)NC(=O)C2=CC(=CC=C2)N(C)C)NC(=O)C3=CC=C(C=C3)O
Outline: as §1

[8] = compound: CC1=CC=C(C=C1)SC2=C3C=C(SC3=CN=C2)C(=O)N
Outline: as §1

vemurafenib = compound: CCCS(=O)(=O)Nc1ccc(F)c(C(=O)c2c[nH]c3ncc(-c4ccc(Cl)cc4)cc23)c1F [vemurafenib]
Outline: as §1

[9] = compound: CCCS(=O)(=O)Nc1ccc(F)c(C(=O)c2c[nH]c3ncc(Cl)cc23)c1F
Outline: as §1

barasertib = compound: CCN(CCCOc1ccc2c(Nc3cc(CC(=O)Nc4cccc(F)c4)[nH]n3)ncnc2c1)CCOP(=O)(O)O [barasertib]
Outline: as §1

[10] = compound: CC[C@@H]1C(=O)N(C)c2cnc(Nc3ccc(C(=O)NC4CCN(C)CC4)cc3OC)nc2N1C1CCCC1
Outline: as §1

volasertib = compound: CC[C@@H]1C(=O)N(C)c2cnc(Nc3ccc(C(=O)N[C@H]4CC[C@H](N5CCN(CC6CC6)CC5)CC4)cc3OC)nc2N1C(C)C [volasertib]
Outline: as §1

[11] = compound: CCn1c(C(=O)N(C2CC2)C2CC2)cc2c3c(ncn3C)c(Nc3cc(C)n(C)n3)nc21
Outline: as §1

[12] = compound: CCn1cc(-c2ccnc3[nH]c(-c4cccc(CN(C)C)c4)cc23)c(-c2ccc(NC(=O)N(C)C)cc2)n1
Outline: as §1

[13] = compound: CN1CCC(CNc2ccc3ncc(-c4cccc(OC(F)(F)F)c4)n3n2)CC1
Outline: as §1

saracatinib = compound: CN1CCN(CCOc2cc(OC3CCOCC3)c3c(Nc4c(Cl)ccc5c4OCO5)ncnc3c2)CC1 [saracatinib]
Outline: as §1

sotrastaurin = compound: CN1CCN(c2nc(C3=C(c4c[nH]c5ccccc45)C(=O)NC3=O)c3ccccc3n2)CC1 [sotrastaurin]
Outline: as §1

Measured: log2 fold change

MYH14 isoform 2 (UniProt Q7Z406)
inactive: ibrutinib 0.017 | [1] -0.03 | ralimetinib 0.016 | [2] -0.029 | [3] -0.011 | [4] -0.008 | [5] -0.047 | [6] 0.021 | [7] 0.028 | [8] -0.021 | vemurafenib 0.059 | [9] 0.06 | barasertib 0.028 | [10] 0.05 | volasertib 0 | [11] -0.012 | [12] -0.026 | [13] 0.024 | saracatinib -0.002 | sotrastaurin 0.04

NAV1 (UniProt Q8NEY1)
inactive: ibrutinib -0.054 | [1] 0.085 | ralimetinib -0.012 | [2] -0.083 | [3] 0.022 | [4] -0.011 | [5] -0.031 | [6] -0.021 | [7] 0.077 | [8] 0.123 | vemurafenib -0.042 | [9] -0.005 | barasertib 0.005 | [10] -0.027 | volasertib 0.059 | [11] 0 | [12] -0.281 | [13] -0.184 | saracatinib -0.041 | sotrastaurin -0.011

NCS1 (UniProt P62166)
inactive: ibrutinib 0.085 | [1] 0.062 | ralimetinib -0.008 | [2] -0.094 | [3] -0.039 | [4] -0.048 | [5] 0.079 | [6] 0.016 | [7] -0.021 | [8] -0.021 | vemurafenib 0.014 | [9] 0 | barasertib 0.097 | [10] 0.013 | volasertib 0.009 | [11] -0.025 | [12] -0.182 | [13] 0.129 | saracatinib 0.024 | sotrastaurin 0.014

NAE1 (UniProt Q13564)
inactive: ibrutinib -0.023 | [1] 0.045 | ralimetinib 0.022 | [2] -0.014 | [3] 0.013 | [4] -0.007 | [5] 0.035 | [6] -0.013 | [7] -0.004 | [8] -0.014 | vemurafenib -0.024 | [9] 0.027 | barasertib 0.002 | [10] 0.031 | volasertib -0.018 | [11] -0.039 | [12] -0.056 | [13] 0.037 | saracatinib 0.017 | sotrastaurin 0.02

NCOR2 (UniProt C9J0Q5)
inactive: ibrutinib -0.002 | [1] -0.001 | ralimetinib -0.026 | [2] -0.056 | [3] -0.034 | [4] 0.046 | [5] 0.022 | [6] -0.064 | [7] -0.014 | [8] -0.04 | vemurafenib 0.006 | [9] 0.021 | barasertib 0.024 | [10] 0.009 | volasertib 0.009 | [11] 0.056 | [12] 0.019 | [13] 0.036 | saracatinib -0.026 | sotrastaurin 0.032

NAA11 (UniProt Q9BSU3)
inactive: ibrutinib 0.021 | [1] -0.053 | ralimetinib 0.206 | [2] 0.059 | [3] -0.007 | [4] -0.063 | [5] 0.028 | [6] -0.058 | [7] 0.007 | [8] -0.051 | vemurafenib -0.033 | [9] 0.005 | barasertib -0.083 | [10] 0.017 | volasertib -0.006 | [11] -0.025 | [12] 0.081 | [13] -0.032 | saracatinib 0.054 | sotrastaurin 0.038

NAV2 (UniProt Q8IVL1)
inactive: ibrutinib 0.232 | [1] 0.041 | ralimetinib -0.252 | [2] 0.89 | [4] -0.255 | [7] -0.005 | [8] 0.158 | [9] -0.139 | barasertib 0.012 | [10] -0.024 | volasertib 0.119 | [11] 0.078 | [12] 0.337 | [13] 0.427

NAA15, A0A0B4J1W3
inactive: ibrutinib 0.029 | [1] 0.03 | ralimetinib 0.021 | [2] 0.004 | [3] -0.016 | [5] 0.06 | [6] -0.082 | [7] -0.004 | [8] 0.003 | vemurafenib -0.055 | [9] 0.007 | barasertib -0.017 | [10] -0.101 | volasertib -0.021 | [11] 0.059 | [12] -0.004 | [13] 0.012 | saracatinib -0.054 | sotrastaurin 0.035

MYO1G (UniProt B0I1T2)
inactive: ibrutinib 0.13 | [1] 0.149 | [3] -0.069 | [4] -0.105 | [5] 0.005 | [6] -0.138 | [8] 0.003 | [9] -0.072 | barasertib 0.216 | [10] -0.09 | volasertib 0.026 | [12] 0.33 | [13] -0.158 | saracatinib -0.057 | sotrastaurin 0.017

NAA20 (UniProt P61599)
inactive: ibrutinib 0.028 | [1] -0.042 | ralimetinib 0.037 | [2] 0.004 | [3] -0.019 | [4] -0.007 | [5] -0.01 | [6] -0.03 | [7] 0.002 | [8] 0.016 | vemurafenib 0.057 | [9] 0.027 | barasertib 0.133 | [10] -0.041 | volasertib -0.036 | [11] 0.017 | [12] 0.058 | [13] 0.001 | saracatinib 0.015 | sotrastaurin 0.008

MUS81 (UniProt Q96NY9)
inactive: ibrutinib -0.28 | [1] 0.236 | ralimetinib -0.046 | [2] 0.028 | [3] 0.024 | [4] 0.054 | [5] 0.017 | [6] -0.044 | [7] 0.074 | [8] -0.17 | [9] -0.155 | barasertib -0.087 | volasertib 0.027 | [11] 0.117 | [12] -0.199 | [13] 0.083 | saracatinib 0.03 | sotrastaurin 0

NCOA1 (UniProt Q15788)
inactive: ibrutinib -0.021 | [1] 0.006 | ralimetinib 0.008 | [2] -0.042 | [3] 0.064 | [4] 0.027 | [5] -0.006 | [6] 0.009 | [7] -0.012 | [8] -0.054 | vemurafenib -0.033 | [9] 0.029 | barasertib 0.035 | [10] 0.031 | volasertib -0.017 | [11] 0.017 | [12] -0.034 | [13] -0.009 | saracatinib 0.023 | sotrastaurin 0.013
